Assay results as given in patent US4748116A, “Peptide substrates for determination of protease activity” (KabiVitrum AB, priority 1980, dated 1988).

Test: Test 2: chemiluminescence appliance response of isoluminol in presence of intact substrate

Nc1ccc2c(=O)[nH][nH]c(=O)c2c1 [Isoluminol]
relation of appliance response to amount of isoluminol (10^-5 -10^-10 M isoluminol plus 10^-4 or 10^-5 M substrate XXI): rectilinear proportion
appliance response of isoluminol relative to that of the substrate at the corresponding concentration (substrate XXI, NaOH/hemine/H2O2 oxidation): 2,500 times
